Reference: patent publication US20090208473A1 (RUTGERS THE STATE UNIVERSITY OF NEW JERSEY, published 2009)
Results are given in words; binding and its absence hold for the method and conditions named. Some binding calls cover weakened binding; strength is not graded here. For some assays here: Sequences can lack the tags named with a protein.

Columns and labels:
[1] = target: GFP-MG53 fusion protein (mouse) (UniProt Q1XH17); assay: oligomerization; Western blot without DTT of GFP-MG53 constructs from C2C12 cells
[2] = target: GFP-MG53 C29L mutant (mouse) (UniProt Q1XH17); assay: as above
[3] = target: GFP-MG53 H31A mutant (mouse) (UniProt Q1XH17); assay: as above
[4] = target: GFP-MG53 C29L/C105S double mutant (mouse) (UniProt Q1XH17); assay: as above
[5] = target: GFP-MG53 C105S mutant (mouse) (UniProt Q1XH17); assay: as above
[6] = target: GFP-MG53 C53, 55, 56A mutant (mouse) (UniProt Q1XH17); assay: as above
[7] = target: GFP-MG53 C86A mutant (mouse) (UniProt Q1XH17); assay: as above
[8] = target: MG53 C313A mutant (mouse) (UniProt Q1XH17); assay: oligomerization under oxidized conditions (FIG. 16)

B1: GFP-MG53 fusion protein (protein, mouse, UniProt Q1XH17 1-477, looked up, not shown: large carriers)
chain: MSAAPGLLRQELSCPLCLQLFDAPVTAECGHSFCRACLIRVAGEPAADGTVACPCCQAPTRPQALSTNLQLSRLVEGLAQVPQGHCEEHLDPLSIYCEQDRTLVCGVCASLGSHRGHRLLPAAEAQARLKTQLPQQKMQLQEACMRKEKTVAVLEHQLVEVEETVRQFRGAVGEQLGKMRMFLAALESSLDREAERVRGDAGVALRRELSSLNSYLEQLRQMEKVLEEVADKPQTEFLMKFCLVTSRLQKILSESPPPARLDIQLPVISDDFKFQVWKKMFRALMPALEELTFDPSSAHPSLVVSSSGRRVECSDQKAPPAGEDTRQFDKAVAVVAQQLLSQGEHYWEVEVGDKPRWALGVMAADASRRGRLHAVPSQGLWLLGLRDGKILEAHVEAKEPRALRTPERPPARIGLYLSFADGVLAFYDASNPDVLTPIFSFHERLPGPVYPIFDVCWHDKGKNAQPLLLVGPEQEQA
With B1 as the binder, how does the binding [1] read?
The binding was “binds”.

B2: GFP-MG53 C29L mutant (protein, mouse, UniProt Q1XH17 1-477, looked up, not shown: large carriers)
chain: MSAAPGLLRQELSCPLCLQLFDAPVTAELGHSFCRACLIRVAGEPAADGTVACPCCQAPTRPQALSTNLQLSRLVEGLAQVPQGHCEEHLDPLSIYCEQDRTLVCGVCASLGSHRGHRLLPAAEAQARLKTQLPQQKMQLQEACMRKEKTVAVLEHQLVEVEETVRQFRGAVGEQLGKMRMFLAALESSLDREAERVRGDAGVALRRELSSLNSYLEQLRQMEKVLEEVADKPQTEFLMKFCLVTSRLQKILSESPPPARLDIQLPVISDDFKFQVWKKMFRALMPALEELTFDPSSAHPSLVVSSSGRRVECSDQKAPPAGEDTRQFDKAVAVVAQQLLSQGEHYWEVEVGDKPRWALGVMAADASRRGRLHAVPSQGLWLLGLRDGKILEAHVEAKEPRALRTPERPPARIGLYLSFADGVLAFYDASNPDVLTPIFSFHERLPGPVYPIFDVCWHDKGKNAQPLLLVGPEQEQA
With B2 as the binder, how does the binding [2] read?
Its binding is “binds”.

B3: GFP-MG53 H31A mutant (protein, mouse, UniProt Q1XH17 1-477, looked up, not shown: large carriers)
chain: MSAAPGLLRQELSCPLCLQLFDAPVTAECGASFCRACLIRVAGEPAADGTVACPCCQAPTRPQALSTNLQLSRLVEGLAQVPQGHCEEHLDPLSIYCEQDRTLVCGVCASLGSHRGHRLLPAAEAQARLKTQLPQQKMQLQEACMRKEKTVAVLEHQLVEVEETVRQFRGAVGEQLGKMRMFLAALESSLDREAERVRGDAGVALRRELSSLNSYLEQLRQMEKVLEEVADKPQTEFLMKFCLVTSRLQKILSESPPPARLDIQLPVISDDFKFQVWKKMFRALMPALEELTFDPSSAHPSLVVSSSGRRVECSDQKAPPAGEDTRQFDKAVAVVAQQLLSQGEHYWEVEVGDKPRWALGVMAADASRRGRLHAVPSQGLWLLGLRDGKILEAHVEAKEPRALRTPERPPARIGLYLSFADGVLAFYDASNPDVLTPIFSFHERLPGPVYPIFDVCWHDKGKNAQPLLLVGPEQEQA
How did the binding [3] turn out when B3 was run?
Its binding is “binds”.

B4: GFP-MG53 C29L/C105S double mutant (protein, mouse, UniProt Q1XH17 1-477, looked up, not shown: large carriers)
chain: MSAAPGLLRQELSCPLCLQLFDAPVTAELGHSFCRACLIRVAGEPAADGTVACPCCQAPTRPQALSTNLQLSRLVEGLAQVPQGHCEEHLDPLSIYCEQDRTLVSGVCASLGSHRGHRLLPAAEAQARLKTQLPQQKMQLQEACMRKEKTVAVLEHQLVEVEETVRQFRGAVGEQLGKMRMFLAALESSLDREAERVRGDAGVALRRELSSLNSYLEQLRQMEKVLEEVADKPQTEFLMKFCLVTSRLQKILSESPPPARLDIQLPVISDDFKFQVWKKMFRALMPALEELTFDPSSAHPSLVVSSSGRRVECSDQKAPPAGEDTRQFDKAVAVVAQQLLSQGEHYWEVEVGDKPRWALGVMAADASRRGRLHAVPSQGLWLLGLRDGKILEAHVEAKEPRALRTPERPPARIGLYLSFADGVLAFYDASNPDVLTPIFSFHERLPGPVYPIFDVCWHDKGKNAQPLLLVGPEQEQA
Which binding [4] does the source give for B4 here?
Its binding is “binds”.

B5: GFP-MG53 C105S mutant (protein, mouse, UniProt Q1XH17 1-477, looked up, not shown: large carriers)
chain: MSAAPGLLRQELSCPLCLQLFDAPVTAECGHSFCRACLIRVAGEPAADGTVACPCCQAPTRPQALSTNLQLSRLVEGLAQVPQGHCEEHLDPLSIYCEQDRTLVSGVCASLGSHRGHRLLPAAEAQARLKTQLPQQKMQLQEACMRKEKTVAVLEHQLVEVEETVRQFRGAVGEQLGKMRMFLAALESSLDREAERVRGDAGVALRRELSSLNSYLEQLRQMEKVLEEVADKPQTEFLMKFCLVTSRLQKILSESPPPARLDIQLPVISDDFKFQVWKKMFRALMPALEELTFDPSSAHPSLVVSSSGRRVECSDQKAPPAGEDTRQFDKAVAVVAQQLLSQGEHYWEVEVGDKPRWALGVMAADASRRGRLHAVPSQGLWLLGLRDGKILEAHVEAKEPRALRTPERPPARIGLYLSFADGVLAFYDASNPDVLTPIFSFHERLPGPVYPIFDVCWHDKGKNAQPLLLVGPEQEQA
B5 was tested. Which binding [5] did it give?
Its binding is “binds”.

B6: GFP-MG53 C53, 55, 56A mutant (protein, mouse, UniProt Q1XH17 1-477, looked up, not shown: large carriers)
chain: MSAAPGLLRQELSCPLCLQLFDAPVTAECGHSFCRACLIRVAGEPAADGTVAAPAAQAPTRPQALSTNLQLSRLVEGLAQVPQGHCEEHLDPLSIYCEQDRTLVCGVCASLGSHRGHRLLPAAEAQARLKTQLPQQKMQLQEACMRKEKTVAVLEHQLVEVEETVRQFRGAVGEQLGKMRMFLAALESSLDREAERVRGDAGVALRRELSSLNSYLEQLRQMEKVLEEVADKPQTEFLMKFCLVTSRLQKILSESPPPARLDIQLPVISDDFKFQVWKKMFRALMPALEELTFDPSSAHPSLVVSSSGRRVECSDQKAPPAGEDTRQFDKAVAVVAQQLLSQGEHYWEVEVGDKPRWALGVMAADASRRGRLHAVPSQGLWLLGLRDGKILEAHVEAKEPRALRTPERPPARIGLYLSFADGVLAFYDASNPDVLTPIFSFHERLPGPVYPIFDVCWHDKGKNAQPLLLVGPEQEQA
How did the binding [6] turn out when B6 was run?
The binding was “binds”.

B7: GFP-MG53 C86A mutant (protein, mouse, UniProt Q1XH17 1-477, looked up, not shown: large carriers)
chain: MSAAPGLLRQELSCPLCLQLFDAPVTAECGHSFCRACLIRVAGEPAADGTVACPCCQAPTRPQALSTNLQLSRLVEGLAQVPQGHAEEHLDPLSIYCEQDRTLVCGVCASLGSHRGHRLLPAAEAQARLKTQLPQQKMQLQEACMRKEKTVAVLEHQLVEVEETVRQFRGAVGEQLGKMRMFLAALESSLDREAERVRGDAGVALRRELSSLNSYLEQLRQMEKVLEEVADKPQTEFLMKFCLVTSRLQKILSESPPPARLDIQLPVISDDFKFQVWKKMFRALMPALEELTFDPSSAHPSLVVSSSGRRVECSDQKAPPAGEDTRQFDKAVAVVAQQLLSQGEHYWEVEVGDKPRWALGVMAADASRRGRLHAVPSQGLWLLGLRDGKILEAHVEAKEPRALRTPERPPARIGLYLSFADGVLAFYDASNPDVLTPIFSFHERLPGPVYPIFDVCWHDKGKNAQPLLLVGPEQEQA
B7 was tested. Which binding [7] did it give?
The binding was “binds”.

B8: MG53 C313A mutant (protein, mouse, UniProt Q1XH17 1-477, looked up, not shown: large carriers)
chain: MSAAPGLLRQELSCPLCLQLFDAPVTAECGHSFCRACLIRVAGEPAADGTVACPCCQAPTRPQALSTNLQLSRLVEGLAQVPQGHCEEHLDPLSIYCEQDRTLVCGVCASLGSHRGHRLLPAAEAQARLKTQLPQQKMQLQEACMRKEKTVAVLEHQLVEVEETVRQFRGAVGEQLGKMRMFLAALESSLDREAERVRGDAGVALRRELSSLNSYLEQLRQMEKVLEEVADKPQTEFLMKFCLVTSRLQKILSESPPPARLDIQLPVISDDFKFQVWKKMFRALMPALEELTFDPSSAHPSLVVSSSGRRVEASDQKAPPAGEDTRQFDKAVAVVAQQLLSQGEHYWEVEVGDKPRWALGVMAADASRRGRLHAVPSQGLWLLGLRDGKILEAHVEAKEPRALRTPERPPARIGLYLSFADGVLAFYDASNPDVLTPIFSFHERLPGPVYPIFDVCWHDKGKNAQPLLLVGPEQEQA
How did the binding [8] turn out when B8 was run?
Its binding is “binds”.
